Publication PMC5837800
No constants are given. Whether binding was seen depends on the method and setting.

Molecular target: recombinant P. falciparum phosphoethanolamine-N-methyltransferase (P. falciparum) (UniProt Q8IDQ9)
Assay: SEC; 4 mg purified protein on HiPrep 16/60 Sephacryl S-200 (120 ml), 50 mM NaH2PO4, 150 mM NaCl, pH 8.0, 0.5 ml/min, calibrated column; both purified

B1: recombinant P. falciparum phosphoethanolamine-N-methyltransferase (enzyme, UniProt Q8IDQ9 1-266)
chain: MTLIENLNSDKTFLENNQYTDEGVKVYEFIFGENYISSGGLEATKKILSDIELNENSKVLDIGSGLGGGCMYINEKYGAHTHGIDICSNIVNMANERVSGNNKIIFEANDILTKEFPENNFDLIYSRDAILHLSLENKNKLFQKCYKWLKPTGTLLITDYCATEKENWDDEFKEYVKQRKYTLITVEEYADILTACNFKNVVSKDLSDYWNQLLEVEHKYLHENKEEFLKLFSEKKFISLDDGWSRKIKDSKRKMQRWGYFKATKN
How did the binding turn out when B1 was run?
Its binding is “no binding”.
